This is one part of the list. Results with a measured potency or affinity are listed apart. Where no call is shown, the source marks the result inconclusive.
assay: restored Mot1-301 yeast growth at 38.5C – whole organism, S. cerevisiae, Mot1-301 ts mutant, luminescence, dose retest, SUMOylation pathway inhibitor project, confirmation (AID 463204); details: S. cerevisiae Mot1-301 ts growth rescue, BacTiter-Glo ATP luminescence; at 42 µM (top of the series)

| SMILES | growth rescue activation [%] |
| --- | --- |
| COc1ccc2c(c1)OC[C@H]1[C@H]2N2C(=O)c3cc(Br)ccc3NC(=O)[C@@]2(C)[C@H]1c1ccccc1 | 100 |
| C[C@@]12C(=O)Nc3ccc(Br)cc3C(=O)N1[C@H]1c3ccccc3OC[C@@H]1[C@@H]2c1ccccc1 | 23.4 |
| O=C(Nc1ccc(Cl)cc1Cl)c1cccc(N2C(=O)C=CC2=O)c1 | 2.62 |

From PubChem BioAssay AID463204 (Broad Institute, 2010)
